“And” between values parts separate entries of the source, which are not always exact repeats. Equal entries are not always repeated. Structures can show the parent of a compound that is named as a salt. The list shows a part of the results. Repeats in this data set agree poorly, so a single value says little.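 The human kidney-derived cells carry a stably integrated construct of eight TEAD-binding elements driving luciferase, read by luminescence in a drug-repurposing library screen. A compound counts as a hit when its signal is more than five robust Z scores above the plate mean.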

Data on 34 compounds can be found in the supplement of paper PMC10735217.

The test system of this test is HEK293A TEAD-LUC reporter. As to the kind of experiment: TEAD-luciferase reporter activity (YAP activation), robust Z score vs plate; higher = stronger YAP/TEAD activation. Conditions: 24 h. On the technique in general: In a reporter assay the amount or activity of a reporter protein is the signal.

With `N=C(N)NCCCCC(=O)Nc1cc(C(F)(F)F)cc(NC(=O)c2cc(C(=O)Nc3cc(C(F)(F)F)cc(NC(=O)CCCCNC(=N)N)c3O[C@@H]3CCNC3)ncn2)c1O[C@@H]1CCNC1`, the TEAD-luciferase reporter activity reads like this: (compound concentration: 200 nM) inactive: 0.377; (compound concentration: 2 uM) inactive: 1.63 and inactive: -0.857; (compound concentration: 10 uM) inactive: -0.0516.

`O=C1CCc2ccc(OCCCCN3CCN(c4cccc(Cl)c4Cl)CC3)cc2N1`: the TEAD-luciferase reporter activity runs as follows: (compound concentration: 200 nM) inactive: -1.11; (compound concentration: 10 uM) inactive: 0.198.

As to `O=C1CCc2ccc(OCCCCN3CCN(c4cccc(Cl)c4Cl)CC3)cc2N1` [Aripiprazole (Abilify)], the TEAD-luciferase reporter activity (compound concentration: 2 uM) is inactive: -0.427.

`N#Cc1ccc2c(c1)N(CCCN1CCC(O)CC1)c1ccccc1S2` [Periciazine]: the TEAD-luciferase reporter activity is inactive: -0.986 (compound concentration: 200 nM), inactive: -0.588 (compound concentration: 2 uM) and inactive: -0.202 (compound concentration: 10 uM).

For the compound `O[C@H]1CC[C@H](Nc2ncc3nc(Nc4c(F)cc(F)cc4F)n([C@H]4CCOC4)c3n2)CC1` [Tanzisertib], the TEAD-luciferase reporter activity is inactive: -1.62 (compound concentration: 200 nM), inactive: -0.997 (compound concentration: 2 uM) and inactive: 0.168 (compound concentration: 10 uM).

Regarding `OC[C@H]1O[C@H](O[C@H]2[C@H](O)[C@@H](O)[C@H](O)O[C@@H]2CO)[C@H](O)[C@@H](O)[C@@H]1O` [Maltose], the TEAD-luciferase reporter activity is inactive: -0.357 (compound concentration: 200 nM), inactive: 0.144 (compound concentration: 2 uM) and inactive: -0.774 (compound concentration: 10 uM).

Consider `O.O.O.O.O.O.[Al+3].[Cl-].[Cl-].[Cl-]` [aluminium chloride hexahydrate], for which the TEAD-luciferase reporter activity (compound concentration: 200 nM) is inactive: 0.58, the TEAD-luciferase reporter activity (compound concentration: 2 uM) is inactive: -1.26 and the TEAD-luciferase reporter activity (compound concentration: 10 uM) was inactive: -0.773.

In the case of `C[N+](C)(C)CC[N+]1(C)Cc2c(Cl)c(Cl)c(Cl)c(Cl)c2C1` [Chlorisondamine diiodide], the TEAD-luciferase reporter activity was inactive: 2.08 (compound concentration: 200 nM), inactive: 1.14 (compound concentration: 2 uM) and inactive: -1.46 (compound concentration: 10 uM).

On to `Cn1c(-c2cccc(F)c2)nc2c(N)nc(C#CC3(O)CCCC3)nc21`, for which the TEAD-luciferase reporter activity (compound concentration: 200 nM) was inactive: 1.31, the TEAD-luciferase reporter activity (compound concentration: 2 uM) is inactive: -0.477 and the TEAD-luciferase reporter activity (compound concentration: 10 uM) is inactive: -0.993.

As for `NCCCC(=O)OCCN1CCN(CCCN2c3ccccc3Sc3ccc(Cl)cc32)CC1`, the TEAD-luciferase reporter activity reads like this: (compound concentration: 200 nM) inactive: -0.644; (compound concentration: 2 uM) inactive: -2.34; (compound concentration: 10 uM) active: 5.28.

Turning to `C[C@H]1c2ccccc2CCN1C(=O)c1cc2ncc(Br)cn2n1`, the TEAD-luciferase reporter activity runs as follows: (compound concentration: 200 nM) inactive: -2.42; (compound concentration: 2 uM) inactive: -1.32; (compound concentration: 10 uM) inactive: 0.724.

As to `Cc1ccc(-c2cccc(CN3CCCC(NC(=O)c4ccc(Cl)cc4)C3)c2)cc1Cl` (centres undefined), the TEAD-luciferase reporter activity is inactive: -2.19 (compound concentration: 200 nM) and inactive: 3.39 (compound concentration: 10 uM).

For the compound `CC(=O)OCC(=O)[C@@]1(O)[C@H](C)C[C@H]2[C@@H]3C[C@H](F)C4=CC(=O)C=C[C@]4(C)[C@@]3(F)[C@@H](O)C[C@@]21C` [Flumethasone Acetate], the TEAD-luciferase reporter activity by setting is: (compound concentration: 200 nM) inactive: 0.393; (compound concentration: 2 uM) inactive: 1.75; (compound concentration: 10 uM) inactive: 4.11.

`NC(=O)C1c2ccccc2C=Cc2ccccc21`: the TEAD-luciferase reporter activity runs as follows: (compound concentration: 200 nM) inactive: -0.327; (compound concentration: 2 uM) inactive: -0.93; (compound concentration: 10 uM) inactive: -0.831.

Take `CN1Cc2ccccc2C(=O)c2cc(CC(=O)O)ccc21`: the TEAD-luciferase reporter activity by setting is: (compound concentration: 200 nM) inactive: -0.807; (compound concentration: 2 uM) inactive: -0.479; (compound concentration: 10 uM) inactive: -1.55.

Regarding `COc1cc(C(=O)OCCCN(C)CCN(C)CCCOC(=O)c2cc(OC)c(OC)c(OC)c2)cc(OC)c1OC`, the TEAD-luciferase reporter activity was inactive: -0.527 (compound concentration: 200 nM), inactive: 1.54 (compound concentration: 2 uM) and inactive: 0.599 (compound concentration: 10 uM).

Regarding `CN1CCN(C2=Nc3ccccc3Oc3ccc(Cl)cc32)CC1` [Loxapine], the TEAD-luciferase reporter activity was inactive: -1.02 (compound concentration: 200 nM) and inactive: 2.89 (compound concentration: 10 uM).

With `CN1CCN(C2=Nc3ccccc3Oc3ccc(Cl)cc32)CC1` [Loxapine succinate], the TEAD-luciferase reporter activity (compound concentration: 2 uM) is inactive: 2.11.

With `CC1(C)Oc2ccc(NC(=O)/C=C/c3ccc([N+](=O)[O-])cc3)cc2NC1=O`, the TEAD-luciferase reporter activity runs as follows: (compound concentration: 200 nM) inactive: 0.327; (compound concentration: 2 uM) inactive: -0.282; (compound concentration: 10 uM) inactive: -1.1.

For the compound `COc1ccc2ncc(C(=O)NC3=NCCS3)c(O)c2c1`, the TEAD-luciferase reporter activity is inactive: -1.09 (compound concentration: 200 nM), inactive: 2.42 (compound concentration: 2 uM) and active: 6.48 (compound concentration: 10 uM).

`CN(C)C(=O)Cn1c(-c2csc(N(CC3CCOCC3)c3ccccc3)n2)c(C2CCCCC2)c2ccc(C(=O)O)cc21`: the TEAD-luciferase reporter activity is, setting by setting: (compound concentration: 200 nM) inactive: 0.755; (compound concentration: 2 uM) inactive: -0.432; (compound concentration: 10 uM) inactive: 0.2.

With `CC(C)(C)NCC(O)c1ccc(O)c(CO)n1` (centres undefined) [Pirbuterol hydrochloride], the TEAD-luciferase reporter activity (compound concentration: 200 nM) was inactive: 0.687, the TEAD-luciferase reporter activity (compound concentration: 2 uM) was inactive: -1.24 and the TEAD-luciferase reporter activity (compound concentration: 10 uM) is inactive: 0.0114.

For the compound `COc1ccc(C(C#N)(CCCN2CCc3cc(OC)c(OC)cc3C2)C(C)C)cc1OC` (centres undefined), the TEAD-luciferase reporter activity runs as follows: (compound concentration: 200 nM) inactive: -0.924; (compound concentration: 2 uM) inactive: -1.43; (compound concentration: 10 uM) inactive: 0.859.

Take `COc1ccc(S(=O)(=O)N(C(C)=O)c2ccccc2/C=C/c2cc[n+]([O-])cc2)cc1`: the TEAD-luciferase reporter activity is inactive: -1.42 (compound concentration: 200 nM), inactive: -2.45 (compound concentration: 2 uM) and inactive: -0.362 (compound concentration: 10 uM).

With `CCN(C(=O)c1c(O)c2c(Cl)cccc2n(C)c1=O)c1ccccc1` [Laquinimod], the TEAD-luciferase reporter activity was inactive: 2.28 (compound concentration: 200 nM) and inactive: 1.35 (compound concentration: 10 uM).

For the compound `CCN(C(=O)c1c(O)c2c(Cl)cccc2n(C)c1=O)c1ccccc1` [laquinimod], for the setting “compound concentration: 2 uM”, the TEAD-luciferase reporter activity was inactive: -1.31.

Regarding `O=C(O)[C@H]1CCCC[C@]1(O)c1ccccc1` [Cicloxilic acid], the TEAD-luciferase reporter activity runs as follows: (compound concentration: 200 nM) inactive: 1.64; (compound concentration: 2 uM) inactive: -0.408; (compound concentration: 10 uM) inactive: 0.708.

In the case of `NC(=O)N/N=C/c1ccc([N+](=O)[O-])o1`, the TEAD-luciferase reporter activity is inactive: -1.76 (compound concentration: 200 nM), inactive: -1.07 (compound concentration: 2 uM) and inactive: -0.549 (compound concentration: 10 uM).

On to `Cc1cc(C(C)(C)C)cc(C)c1CC1=NCCN1` [xylometazoline], for which, for the setting “compound concentration: 2 uM”, the TEAD-luciferase reporter activity was inactive: 0.158.

Turning to `Cc1cc(C(C)(C)C)cc(C)c1CC1=NCCN1` [xylometazoline, Novartis], the TEAD-luciferase reporter activity by setting is: (compound concentration: 200 nM) inactive: -1.55; (compound concentration: 10 uM) active: 7.16.

In the case of `Cc1ccccc1NC(=O)NCCCC[C@H](NC(=O)[C@H](Cc1c[nH]c2ccccc12)NC(=O)OC(C)(C)C)C(=O)N[C@@H](CC(=O)O)C(=O)N(C)[C@@H](Cc1ccccc1)C(N)=O`, the TEAD-luciferase reporter activity is inactive: -0.111 (compound concentration: 200 nM), inactive: 1.73 (compound concentration: 2 uM) and inactive: -0.232 (compound concentration: 10 uM).

Take `CNc1cc(OC)c(C(=O)N[C@@H]2CCN(Cc3ccccc3)[C@@H]2C)cc1Cl` [nemonapride]: the TEAD-luciferase reporter activity is, setting by setting: (compound concentration: 200 nM) inactive: -1.45; (compound concentration: 2 uM) inactive: -1.91; (compound concentration: 10 uM) inactive: -0.69.

As for `CCN1CCC[C@H]1CNC(=O)c1c(OC)ccc(Br)c1OC` [Remoxipride], the TEAD-luciferase reporter activity by setting is: (compound concentration: 200 nM) inactive: -1.37; (compound concentration: 2 uM) inactive: -1.03; (compound concentration: 10 uM) inactive: 3.05.

Take `c1ccc2c(c1)[nH]c1cc(Cc3c[nH]cn3)ccc12`: the TEAD-luciferase reporter activity reads like this: (compound concentration: 200 nM) inactive: -0.713; (compound concentration: 2 uM) inactive: -0.292; (compound concentration: 10 uM) inactive: 1.47.
